Test results reported in patent US12098356B2, “Effects of space travel on human brain cells” (EMULATE, Inc., priority 2017, dated 2024).
Some results were stated once for a whole list of compounds, not compound by compound.

Test system: glutamatergic neurons on the Brain-Chip
Assay: Calcium imaging (Fluo-4 AM) of neuronal activity on the Brain-Chip
Format: cell-based, human
Details: combination of DAP5 and CNQX, controls around 100% active neurons
Excerpt: FIG. 30A Spontaneous activity was studied by means of calcium imaging, enabling the investigation of neuronal activity of single cells and the network as a whole. Fluo-4 AM, a calcium sensitive fluorescent dye, was loaded onto the cells, and intracellular calcium fluctuations were monitored over time using high-speed imaging. […] FIG. 38A-C Pharmacological Targeting of the Glutamatergic Neurons in the Brain-Chip. […] Scale bars=200 μm. […] FIG. 38A-C Pharmacological Targeting of the Glutamatergic Neurons in the Brain-Chip. […] Scale bars=200 μm.

N#Cc1cc2c(cc1[N+](=O)[O-])=NC(=O)C(=O)N=2 [CNQX, 6-cyano-7-nitroquinoxaline-2,3-dione]
active neurons after addition of inhibitors: less than 25%
